# According to the supplement of paper PMC8728848:
# The list shows a part of the results.
# Key:
# Test in all cases: glycan array binding signal (z-score within array); higher = stronger binding
# Conditions in all cases: glycan notation: IUPAC condensed, linker removed
# [1] = target: Gal(b1-4)GlcNAc(b1-3)Gal(b1-4)GlcNAc(b1-6)[Gal(b1-3)]GalNAc
# How it was run: (§1)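 Glycan array data came from 3228 arrays in the Consortium for Functional Glycomics database, and only arrays with an available protein sequence were kept. Glycan names were put into IUPAC-condensed notation, and columns mapping to the same glycan were averaged. The binding signal is a within-array Z-score, averaged across arrays of one protein sequence run at different concentrations or buffers and across linkers. A negative Z-score can be read as non-binding.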
# [2] = target: Gal(b1-4)GlcNAc(b1-3)Gal(b1-4)[Fuc(a1-3)]GlcNAc(b1-3)Gal(b1-4)[Fuc(a1-3)]GlcNAc
# How it was run: as §1
# [3] = target: Gal(b1-4)GlcNAc(b1-3)GalNAc
# How it was run: as §1
# [4] = target: Gal(b1-4)GlcNAc(b1-3)[Fuc(a1-3)GlcNAc(b1-6)]Gal(b1-4)Glc
# How it was run: as §1
# [5] = target: Gal(b1-4)GlcNAc(b1-3)[Gal(b1-4)GlcNAc(b1-6)]Gal(b1-4)GlcNAc
# How it was run: as §1
# [6] = target: Gal(b1-4)GlcNAc(b1-3)[GlcNAc(b1-6)]Gal(b1-4)GlcNAc
# How it was run: as §1
# [7] = target: Gal(b1-4)GlcNAc(b1-6)Gal(b1-4)GlcNAc
# How it was run: as §1
# [8] = target: Gal(b1-4)GlcNAc(b1-6)GalNAc
# How it was run: as §1
# [9] = target: Gal(b1-4)GlcNAc(b1-6)[Gal(b1-3)]GalNAc
# How it was run: as §1
# [10] = target: Gal(b1-4)GlcNAc(b1-6)[Gal(b1-4)GlcNAc(b1-3)]GalNAc
# How it was run: as §1
# [11] = target: Gal(b1-4)GlcNAc6P
# How it was run: as §1
# [12] = target: Gal(b1-6)Gal
# How it was run: as §1
# [13] = target: Gal3S(b1-3)GalNAc
# How it was run: as §1
# [14] = target: Gal3S(b1-3)GlcNAc
# How it was run: as §1
# [15] = target: Gal3S(b1-3)[Fuc(a1-4)]GlcNAc
# How it was run: as §1
# [16] = target: Gal3S(b1-4)Glc
# How it was run: as §1
# [17] = target: Gal3S(b1-4)Glc6S
# How it was run: as §1
# [18] = target: Gal3S(b1-4)GlcNAc
# How it was run: as §1
# [19] = target: Gal3S(b1-4)[Fuc(a1-3)]Glc6S
# How it was run: as §1
# [20] = target: Gal3S(b1-4)[Fuc(a1-3)]GlcNAc
# How it was run: as §1
# [21] = target: Gal3S(b1-4)[Fuc(a1-3)]GlcNAc6S
# How it was run: as §1
# [22] = target: Gal3S4S(b1-4)GlcNAc
# How it was run: as §1
# [23] = target: Gal3S6S(b1-4)GlcNAc
# How it was run: as §1
# [24] = target: Gal3S6S(b1-4)GlcNAc6S
# How it was run: as §1
# [25] = target: Gal4S(b1-4)GlcNAc
# How it was run: as §1
# [26] = target: Gal4S6S(b1-4)GlcNAc
# How it was run: as §1
# [27] = target: Gal6P(b1-4)GlcNAc
# How it was run: as §1
# [28] = target: Gal6S(b1-3)GlcNAc
# How it was run: as §1
# [29] = target: Gal6S(b1-3)GlcNAc6S
# How it was run: as §1
# [30] = target: Gal6S(b1-4)Glc
# How it was run: as §1
# [31] = target: Gal6S(b1-4)Glc6S
# How it was run: as §1
# [32] = target: Gal6S(b1-4)GlcNAc
# How it was run: as §1
# [33] = target: Gal6S(b1-4)GlcNAc6S
# How it was run: as §1
# [34] = target: GalNAc(a1-3)Gal
# How it was run: as §1
# [35] = target: GalNAc(a1-3)GalNAc
# How it was run: as §1
# [36] = target: GalNAc(a1-3)GalNAc(b1-3)Gal(a1-4)Gal(b1-4)Glc
# How it was run: as §1
# [37] = target: GalNAc(a1-3)GalNAc(b1-3)Gal(a1-4)Gal(b1-4)GlcNAc
# How it was run: as §1
# [38] = target: GalNAc(b1-3)Gal
# How it was run: as §1
# [39] = target: GalNAc(b1-3)Gal(a1-4)Gal(b1-4)GlcNAc
# How it was run: as §1
# [40] = target: GalNAc(b1-3)Gal(a1-4)Gal(b1-4)GlcNAc(b1-3)Gal(b1-4)Glc
# How it was run: as §1
# [41] = target: GalNAc(b1-3)Gal(a1-6)Gal(b1-4)Glc
# How it was run: as §1
# [42] = target: GalNAc(b1-3)GalNAc
# How it was run: as §1
# [43] = target: GalNAc(b1-3)GlcNAc
# How it was run: as §1
# [44] = target: GalNAc(b1-4)Gal(b1-4)Glc
# How it was run: as §1
# [45] = target: GalNAc(b1-4)GlcNAc
# How it was run: as §1
binder,measurement,setting,value
Vd7LysM (Verticillium dahliae) (protein) RRGPEPKYPPAAGTSSYCSYWVDYEGDKSCSRVLEDNVVVLKDFARWNPTVGADCSGIKAGNSYCVEAFGEPEPIEVTTTTRAATTTTQPTATTTTFANGIATPQPTQSGMVTNCNKFHWIAEGVSCSQVISFQKITLADFVKWNPSVKSDCSGMWAGVNVCVGVVGSSTDTAKPTTTAPSNGVVTPQPTQPSMVTNCNKFHWIAKGVTCQQVISYQKISLADFVKWNPSVLSDCSGMWAEVQVCVGVIGSTPTTLATTTTTAGNGVSTPLPTQPGMVTNCAKFHWVAKGVTCNQIYSFQKITLEQFVSYNPTVKSDCSGMQAEVQVCVGLIAGTTPTTTRPPTTTAPGNGVSTPQPTQPGMVTNCAKFHWVAKGVTCNQIYSFQKITLEQFVSFNPTVKSDCTGMQAEVNVCVGLIGGNPTPTQTGNGIATPTPIQPGMVSNCKKFHWIAQGVTCQQVISFQKITLADFVKWNTGVGSDCRTMWAETNVCVGV,glycan array binding signal (z-score),[1],-0.892
same,glycan array binding signal (z-score),[2],-0.604
same,glycan array binding signal (z-score),[3],0.361
same,glycan array binding signal (z-score),[4],-0.148
same,glycan array binding signal (z-score),[5],-0.52
same,glycan array binding signal (z-score),[6],-0.948
same,glycan array binding signal (z-score),[7],0.495
same,glycan array binding signal (z-score),[8],-0.1
same,glycan array binding signal (z-score),[9],-0.773
same,glycan array binding signal (z-score),[10],0.039
same,glycan array binding signal (z-score),[11],1.44
same,glycan array binding signal (z-score),[12],-0.067
same,glycan array binding signal (z-score),[13],0.013
same,glycan array binding signal (z-score),[14],0.215
same,glycan array binding signal (z-score),[15],0.301
same,glycan array binding signal (z-score),[16],0.548
same,glycan array binding signal (z-score),[17],0.238
same,glycan array binding signal (z-score),[18],0.741
same,glycan array binding signal (z-score),[19],1.39
same,glycan array binding signal (z-score),[20],-0.338
same,glycan array binding signal (z-score),[21],0.512
same,glycan array binding signal (z-score),[22],-1.45
same,glycan array binding signal (z-score),[23],0.976
same,glycan array binding signal (z-score),[24],-0.249
same,glycan array binding signal (z-score),[25],-0.086
same,glycan array binding signal (z-score),[26],0.198
same,glycan array binding signal (z-score),[27],0.595
same,glycan array binding signal (z-score),[28],1.19
same,glycan array binding signal (z-score),[29],-0.874
same,glycan array binding signal (z-score),[30],0.824
same,glycan array binding signal (z-score),[31],0.388
same,glycan array binding signal (z-score),[32],0.161
same,glycan array binding signal (z-score),[33],0.706
same,glycan array binding signal (z-score),[34],-0.819
same,glycan array binding signal (z-score),[35],-0.607
same,glycan array binding signal (z-score),[36],-0.237
same,glycan array binding signal (z-score),[37],0.706
same,glycan array binding signal (z-score),[38],-1.46
same,glycan array binding signal (z-score),[39],-0.073
same,glycan array binding signal (z-score),[40],-0.875
same,glycan array binding signal (z-score),[41],0.796
same,glycan array binding signal (z-score),[42],1.01
same,glycan array binding signal (z-score),[43],-0.808
same,glycan array binding signal (z-score),[44],-0.137
same,glycan array binding signal (z-score),[45],-0.187

# Given with tabs: entries from further up.
binder	measurement	setting	value
Vd7LysM (Verticillium dahliae) (protein) RRGPEPKYPPAAGTSSYCSYWVDYEGDKSCSRVLEDNVVVLKDFARWNPTVGADCSGIKAGNSYCVEAFGEPEPIEVTTTTRAATTTTQPTATTTTFANGIATPQPTQSGMVTNCNKFHWIAEGVSCSQVISFQKITLADFVKWNPSVKSDCSGMWAGVNVCVGVVGSSTDTAKPTTTAPSNGVVTPQPTQPSMVTNCNKFHWIAKGVTCQQVISYQKISLADFVKWNPSVLSDCSGMWAEVQVCVGVIGSTPTTLATTTTTAGNGVSTPLPTQPGMVTNCAKFHWVAKGVTCNQIYSFQKITLEQFVSYNPTVKSDCSGMQAEVQVCVGLIAGTTPTTTRPPTTTAPGNGVSTPQPTQPGMVTNCAKFHWVAKGVTCNQIYSFQKITLEQFVSFNPTVKSDCTGMQAEVNVCVGLIGGNPTPTQTGNGIATPTPIQPGMVSNCKKFHWIAQGVTCQQVISFQKITLADFVKWNTGVGSDCRTMWAETNVCVGV	glycan array binding signal (z-score)	[11]	1.44
same	glycan array binding signal (z-score)	[13]	0.013
same	glycan array binding signal (z-score)	[17]	0.238
same	glycan array binding signal (z-score)	[18]	0.741
same	glycan array binding signal (z-score)	[26]	0.198
same	glycan array binding signal (z-score)	[29]	-0.874
same	glycan array binding signal (z-score)	[30]	0.824
same	glycan array binding signal (z-score)	[34]	-0.819
same	glycan array binding signal (z-score)	[36]	-0.237
same	glycan array binding signal (z-score)	[39]	-0.073
same	glycan array binding signal (z-score)	[45]	-0.187
